Values joined by “and” are separate entries in the source; they are usually repeats but may differ in a detail not shown here. Identical values can stand only once.
Experiments:
[1] = Emitted dose studies with dry powder inhalers; details: micronized drug, individual experiments
[2] = Respirable dose studies (Andersen cascade impactor); details: 90 L/min

In the case of C[C@]12CC[C@H](OS(=O)(=O)[O-])CC1=CC[C@@H]1[C@@H]2CC[C@]2(C)C(=O)CC[C@@H]12.[Na+] [Anhydrous DHEA-S], the “Emitted Dose (%)” value ([1]; Rotahaler (2nd study), 87.8 L/min) is reported as 16.0% and 24.5% and 53.9%, the “Emitted Dose (%)” value ([1]; Rotahaler, 30 L/min) is reported as 34.5% and 21.2% and 48.5% and the “increase in the respirable dose, spray-dried compared to micronized anhydrous DHEA-S” value [2] is reported as “two-fold increase”.

Source: patent US20090285898A1, “COMBINATION OF DEHYDROEPIANDROSTERONE OR DEHYDROEPIANDROSTERONE-SULFATE WITH AN ANTICHOLINERGIC BRONCHODILATOR FOR TREATMENT OF ASTHMA OR CHRONIC OBSTRUCTIVE PULMONARY DISEASE” (priority 2003, published 2009)
